This passage reports binding results from paper PMC6220978, “Induced conformational changes activate the peptidoglycan synthase PBP1B” (Molecular Microbiology, 2018).

The target of assay [1] is T1, UB2H domain of PBP1B (PBP1B^108–200) (E. coli) (UniProt P02919).
T1 sequence: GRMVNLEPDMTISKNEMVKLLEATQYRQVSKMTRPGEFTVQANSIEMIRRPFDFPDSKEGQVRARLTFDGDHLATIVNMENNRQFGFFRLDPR
In words: NMR structure; 2 mM [13C,15N]-UB2H with 1.2 molar ratio of unlabelled LpoB, 10 mM Tris/HCl, 200 mM NaCl, pH 7.5, 10% D2O, 20°C; structure of UB2H in the complex; no intermolecular distance detectable; both purified.

The target of assay [2] is T1, UB2H domain of PBP1B (PBP1B^108–200) (E. coli). In words: NMR titration; chemical shift perturbations on the amide groups of labelled UB2H with unlabelled LpoB; 2D HN-HSQC at 20°C; both purified.
Assay [3] deals with T2, PBP1B (wild type, PBP1B^46-844) (E. coli) (UniProt P02919).
T2 sequence: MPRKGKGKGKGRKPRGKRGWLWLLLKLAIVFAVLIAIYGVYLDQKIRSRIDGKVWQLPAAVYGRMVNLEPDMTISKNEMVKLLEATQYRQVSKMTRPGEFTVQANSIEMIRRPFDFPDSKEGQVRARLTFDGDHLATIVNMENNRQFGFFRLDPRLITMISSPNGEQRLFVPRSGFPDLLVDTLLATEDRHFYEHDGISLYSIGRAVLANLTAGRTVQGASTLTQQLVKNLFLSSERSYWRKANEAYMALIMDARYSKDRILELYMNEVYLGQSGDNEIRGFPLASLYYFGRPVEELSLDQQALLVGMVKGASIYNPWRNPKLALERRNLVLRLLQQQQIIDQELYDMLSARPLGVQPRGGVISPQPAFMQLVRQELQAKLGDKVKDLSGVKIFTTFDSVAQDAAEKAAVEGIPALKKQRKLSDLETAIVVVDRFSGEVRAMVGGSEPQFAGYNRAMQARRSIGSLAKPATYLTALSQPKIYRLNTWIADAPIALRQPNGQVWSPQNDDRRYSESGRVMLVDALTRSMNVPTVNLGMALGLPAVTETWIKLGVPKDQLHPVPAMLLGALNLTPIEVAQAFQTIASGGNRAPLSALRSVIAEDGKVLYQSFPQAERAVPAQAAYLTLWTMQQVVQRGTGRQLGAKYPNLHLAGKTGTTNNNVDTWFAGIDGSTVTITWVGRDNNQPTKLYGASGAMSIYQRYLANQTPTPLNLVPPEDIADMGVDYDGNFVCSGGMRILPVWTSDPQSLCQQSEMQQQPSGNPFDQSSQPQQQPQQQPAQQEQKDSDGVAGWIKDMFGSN
Kind of assay: condition: 3.9 nM to 2 μM or 78 nM to 40 μM injected (which range is not told); SPR; PBP1B versions immobilised to the chip surface; CpoB versions injected from either 3.9 nM to 2 μM or from 78 nM to 40 μM; apparent KD by non-linear regression, at least three independent experiments; both purified.

The next assay deals with T3, PBP1B^Δ158–160 (E. coli, UniProt P02919 46-844, Δ158–160).
T3 construct: PBP1B, E. coli, residues 46-844 with residues 158-160 of Loop 1 removed, made by mutagenesis of pDML924; also called Loop 1 truncation; source: E. coli BL21(DE3), purified (membrane extract, HisTrap, thrombin, HiTrap SP ion exchange)
T3 sequence (looked up): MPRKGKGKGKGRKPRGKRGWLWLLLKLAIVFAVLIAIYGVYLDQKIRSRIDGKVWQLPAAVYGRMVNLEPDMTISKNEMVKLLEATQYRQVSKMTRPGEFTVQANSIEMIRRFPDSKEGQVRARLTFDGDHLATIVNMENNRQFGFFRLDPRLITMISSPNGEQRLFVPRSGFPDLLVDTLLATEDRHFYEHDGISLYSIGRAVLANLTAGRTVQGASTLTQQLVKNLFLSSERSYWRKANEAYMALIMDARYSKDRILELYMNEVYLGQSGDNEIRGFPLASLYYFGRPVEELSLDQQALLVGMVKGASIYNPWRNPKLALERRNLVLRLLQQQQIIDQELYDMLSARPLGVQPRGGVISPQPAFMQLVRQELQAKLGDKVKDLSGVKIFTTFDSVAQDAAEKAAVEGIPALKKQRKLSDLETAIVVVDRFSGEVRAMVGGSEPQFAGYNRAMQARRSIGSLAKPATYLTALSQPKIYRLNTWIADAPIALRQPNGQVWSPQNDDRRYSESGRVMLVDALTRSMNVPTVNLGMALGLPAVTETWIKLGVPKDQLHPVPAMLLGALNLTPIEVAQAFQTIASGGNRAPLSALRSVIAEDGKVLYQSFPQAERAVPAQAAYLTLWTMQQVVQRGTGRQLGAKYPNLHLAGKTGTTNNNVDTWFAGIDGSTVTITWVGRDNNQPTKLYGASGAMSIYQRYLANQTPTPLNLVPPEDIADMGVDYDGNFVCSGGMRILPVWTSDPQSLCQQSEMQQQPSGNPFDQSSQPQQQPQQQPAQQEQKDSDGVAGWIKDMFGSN
The assay is described as above.

No constants are given. Whether binding was seen depends on the method and setting. Some entries that bind do so weakly or less than the wild type.

B1: LpoB (natural protein, E. coli)
chain: VGQREPAPVEEVKPAPEQPAEPQQPVPTVPSVPTIPQQPGPIEHEDQTAPPAPHIRHYDWNGAMQPMVSKMLGADGVTAGSVLLVDSVNNRTNGSLNAAEATETLRNALANNGKFTLVSAQQLSMAKQQLGLSPQDSLGTRSKAIGIARNVGAHYVLYSSASGNVNAPTLQMQLMLVQTGEIIWSGKGAVSQQ
notes: LpoB, E. coli; also called lipoprotein LpoB; source: E. coli BL21(DE3), purified (HisTrap, Superdex 200), as in Egan et al. 2014
With B1, the binding result in assay [1] and in assay [2] was “binds” each time.

B2: CpoB^CC (CpoB^27-109), N-terminal coiled-coil domain of CpoB (domain or fragment, UniProt P45955 27-109)
chain: QAPISSVGSGSVEDRVTQLERISNAHSQLLTQLQQQLSDNQSDIDSLRGQIQENQYQLNQVVERQKQILLQIDSLSSGGAAAQ
For B2, the binding result in assay [3] is “no binding”.

B3: CpoB (full length) (natural protein, E. coli, UniProt P45955 27-263, looked up)
chain: QAPISSVGSGSVEDRVTQLERISNAHSQLLTQLQQQLSDNQSDIDSLRGQIQENQYQLNQVVERQKQILLQIDSLSSGGAAAQSTSGDQSGAAASTTPTADAGTANAGAPVKSGNANTDYNAAIALVQDKSRQDDAMVAFQNFIKNYPDSTYLPNANYWLGQLNYNKGKKDDAAYYFASVVKNYPKSPKAADAMFKVGVIMQDKGDTAKAKAVYQQVISKYPGTDGAKQAQKRLNAM
notes: CpoB, E. coli; The coiled-coil construct begins at residue 27, so the purified 'full length' protein may lack the signal peptide (surmise); source: E. coli BL21(DE3), purified (HisTrap, Superdex 200), as in Gray et al. 2015
On to B3, for which, in the assay with PBP1B^Δ158–160, the binding entry was “no binding”.
